The other results are listed elsewhere or left out. Most entries show no effect beyond the scatter of the controls.

The chains behind the UniProt entries cited, without tags or fusion partners. Where a name states a change or a piece, a line headed by the entry shows the natural chain unless it says otherwise.
UniProt P36995: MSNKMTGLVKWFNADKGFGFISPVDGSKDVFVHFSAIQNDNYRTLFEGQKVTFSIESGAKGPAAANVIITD
UniProt P36548: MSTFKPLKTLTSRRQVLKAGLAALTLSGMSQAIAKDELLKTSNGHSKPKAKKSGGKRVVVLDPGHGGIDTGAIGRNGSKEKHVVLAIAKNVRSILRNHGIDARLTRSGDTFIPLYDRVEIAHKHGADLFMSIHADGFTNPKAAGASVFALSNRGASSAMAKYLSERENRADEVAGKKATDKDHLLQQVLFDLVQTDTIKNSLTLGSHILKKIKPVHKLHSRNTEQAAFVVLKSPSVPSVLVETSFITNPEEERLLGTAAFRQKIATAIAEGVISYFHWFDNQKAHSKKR
UniProt P43329: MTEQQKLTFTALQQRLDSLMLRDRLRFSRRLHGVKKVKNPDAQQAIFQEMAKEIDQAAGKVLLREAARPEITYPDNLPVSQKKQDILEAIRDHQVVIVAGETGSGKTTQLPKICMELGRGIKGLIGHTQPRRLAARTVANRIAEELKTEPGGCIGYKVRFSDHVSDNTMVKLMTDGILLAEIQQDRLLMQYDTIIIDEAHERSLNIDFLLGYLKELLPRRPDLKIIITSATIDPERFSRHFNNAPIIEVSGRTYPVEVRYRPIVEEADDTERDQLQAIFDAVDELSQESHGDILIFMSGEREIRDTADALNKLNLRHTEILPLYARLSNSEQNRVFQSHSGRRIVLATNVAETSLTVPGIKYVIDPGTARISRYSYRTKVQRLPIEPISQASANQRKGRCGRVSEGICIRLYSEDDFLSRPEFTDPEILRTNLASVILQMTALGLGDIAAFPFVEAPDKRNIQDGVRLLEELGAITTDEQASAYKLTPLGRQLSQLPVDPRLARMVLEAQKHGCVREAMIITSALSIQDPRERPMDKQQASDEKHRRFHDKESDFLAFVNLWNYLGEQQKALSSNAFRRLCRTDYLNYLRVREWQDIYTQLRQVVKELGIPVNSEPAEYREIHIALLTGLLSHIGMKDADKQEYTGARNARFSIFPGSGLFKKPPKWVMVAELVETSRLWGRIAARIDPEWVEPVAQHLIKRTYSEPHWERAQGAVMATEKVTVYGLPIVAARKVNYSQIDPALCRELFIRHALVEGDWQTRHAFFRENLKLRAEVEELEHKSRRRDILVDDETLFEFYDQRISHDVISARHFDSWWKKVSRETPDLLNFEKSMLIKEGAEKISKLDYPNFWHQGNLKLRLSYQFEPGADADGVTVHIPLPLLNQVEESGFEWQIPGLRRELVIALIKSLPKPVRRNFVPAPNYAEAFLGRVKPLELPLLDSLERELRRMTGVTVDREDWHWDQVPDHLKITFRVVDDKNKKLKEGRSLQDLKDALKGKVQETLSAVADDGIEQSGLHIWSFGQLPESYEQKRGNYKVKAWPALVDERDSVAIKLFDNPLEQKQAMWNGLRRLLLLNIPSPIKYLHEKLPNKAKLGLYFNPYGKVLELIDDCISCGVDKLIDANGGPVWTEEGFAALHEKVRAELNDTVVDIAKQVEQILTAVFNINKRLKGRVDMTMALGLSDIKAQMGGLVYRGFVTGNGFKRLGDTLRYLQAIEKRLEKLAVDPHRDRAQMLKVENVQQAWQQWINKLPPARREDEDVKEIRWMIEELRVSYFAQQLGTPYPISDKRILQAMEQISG
UniProt P43671: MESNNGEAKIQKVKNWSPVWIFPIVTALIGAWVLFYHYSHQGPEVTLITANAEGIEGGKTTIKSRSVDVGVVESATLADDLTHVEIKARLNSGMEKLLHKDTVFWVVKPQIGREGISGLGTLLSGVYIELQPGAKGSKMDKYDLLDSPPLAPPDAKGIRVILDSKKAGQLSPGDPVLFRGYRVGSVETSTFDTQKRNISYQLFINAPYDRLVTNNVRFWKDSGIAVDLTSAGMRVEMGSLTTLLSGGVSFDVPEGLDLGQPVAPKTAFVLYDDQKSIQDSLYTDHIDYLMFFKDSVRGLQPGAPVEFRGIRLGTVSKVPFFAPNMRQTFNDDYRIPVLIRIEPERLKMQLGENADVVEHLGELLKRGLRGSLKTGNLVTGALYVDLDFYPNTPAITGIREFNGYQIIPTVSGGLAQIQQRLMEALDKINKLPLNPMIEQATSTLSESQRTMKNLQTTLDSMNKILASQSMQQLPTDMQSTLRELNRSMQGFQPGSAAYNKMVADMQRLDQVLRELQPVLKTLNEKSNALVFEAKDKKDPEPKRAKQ
UniProt P37902: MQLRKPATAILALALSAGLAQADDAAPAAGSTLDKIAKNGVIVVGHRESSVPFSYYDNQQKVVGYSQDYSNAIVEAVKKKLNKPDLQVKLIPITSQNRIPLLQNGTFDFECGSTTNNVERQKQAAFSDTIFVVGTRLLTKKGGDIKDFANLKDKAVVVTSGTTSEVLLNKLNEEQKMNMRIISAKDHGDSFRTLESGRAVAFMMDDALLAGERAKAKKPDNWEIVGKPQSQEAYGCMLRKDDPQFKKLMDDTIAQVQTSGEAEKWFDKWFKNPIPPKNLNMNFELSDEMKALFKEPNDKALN
UniProt P37769: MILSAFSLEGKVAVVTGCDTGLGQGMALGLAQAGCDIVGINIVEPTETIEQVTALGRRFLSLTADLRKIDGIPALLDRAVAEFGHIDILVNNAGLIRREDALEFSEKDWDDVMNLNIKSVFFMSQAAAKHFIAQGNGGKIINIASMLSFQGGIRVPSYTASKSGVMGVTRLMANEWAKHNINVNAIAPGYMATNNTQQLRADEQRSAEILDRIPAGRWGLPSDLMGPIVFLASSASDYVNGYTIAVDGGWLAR
UniProt P36677: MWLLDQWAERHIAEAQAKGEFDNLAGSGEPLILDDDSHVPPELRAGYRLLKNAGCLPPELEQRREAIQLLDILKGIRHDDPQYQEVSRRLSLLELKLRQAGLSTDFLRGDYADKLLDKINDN
UniProt P37765: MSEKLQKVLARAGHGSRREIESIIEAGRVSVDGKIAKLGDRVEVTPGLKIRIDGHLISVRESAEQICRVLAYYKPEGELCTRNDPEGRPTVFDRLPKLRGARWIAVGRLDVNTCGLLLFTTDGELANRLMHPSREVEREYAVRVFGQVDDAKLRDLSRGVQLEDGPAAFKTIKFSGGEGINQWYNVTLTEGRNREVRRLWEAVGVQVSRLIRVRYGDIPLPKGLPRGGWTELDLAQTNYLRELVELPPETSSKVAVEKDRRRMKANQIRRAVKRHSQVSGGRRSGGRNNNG
UniProt P37348: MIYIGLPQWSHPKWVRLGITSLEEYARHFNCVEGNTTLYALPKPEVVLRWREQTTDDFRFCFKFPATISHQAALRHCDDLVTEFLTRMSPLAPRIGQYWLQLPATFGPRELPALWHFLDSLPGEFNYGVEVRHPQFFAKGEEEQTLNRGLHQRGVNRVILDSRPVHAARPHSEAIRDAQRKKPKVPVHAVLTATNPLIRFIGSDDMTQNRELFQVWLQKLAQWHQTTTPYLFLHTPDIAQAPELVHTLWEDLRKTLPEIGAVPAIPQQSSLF
UniProt P37652: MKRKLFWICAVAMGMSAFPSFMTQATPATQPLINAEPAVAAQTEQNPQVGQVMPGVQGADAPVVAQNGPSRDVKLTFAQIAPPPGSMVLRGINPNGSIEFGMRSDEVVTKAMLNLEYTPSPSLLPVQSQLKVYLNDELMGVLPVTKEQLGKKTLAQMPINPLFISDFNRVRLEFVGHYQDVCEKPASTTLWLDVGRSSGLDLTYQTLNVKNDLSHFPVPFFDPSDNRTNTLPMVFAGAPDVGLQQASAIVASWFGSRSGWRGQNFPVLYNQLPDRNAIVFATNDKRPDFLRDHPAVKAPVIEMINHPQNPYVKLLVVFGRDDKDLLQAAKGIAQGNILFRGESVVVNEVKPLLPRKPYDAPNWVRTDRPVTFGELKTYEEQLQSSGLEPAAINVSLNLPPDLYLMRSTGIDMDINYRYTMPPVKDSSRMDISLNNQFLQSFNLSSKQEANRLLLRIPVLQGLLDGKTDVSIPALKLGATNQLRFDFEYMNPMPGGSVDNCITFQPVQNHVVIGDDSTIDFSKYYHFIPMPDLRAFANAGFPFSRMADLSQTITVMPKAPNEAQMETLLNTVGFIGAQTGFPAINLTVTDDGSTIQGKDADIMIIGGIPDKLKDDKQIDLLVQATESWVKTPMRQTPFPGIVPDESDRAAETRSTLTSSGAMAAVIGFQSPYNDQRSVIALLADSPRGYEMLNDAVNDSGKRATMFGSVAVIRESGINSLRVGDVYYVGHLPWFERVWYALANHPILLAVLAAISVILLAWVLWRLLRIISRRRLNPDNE
UniProt P39829: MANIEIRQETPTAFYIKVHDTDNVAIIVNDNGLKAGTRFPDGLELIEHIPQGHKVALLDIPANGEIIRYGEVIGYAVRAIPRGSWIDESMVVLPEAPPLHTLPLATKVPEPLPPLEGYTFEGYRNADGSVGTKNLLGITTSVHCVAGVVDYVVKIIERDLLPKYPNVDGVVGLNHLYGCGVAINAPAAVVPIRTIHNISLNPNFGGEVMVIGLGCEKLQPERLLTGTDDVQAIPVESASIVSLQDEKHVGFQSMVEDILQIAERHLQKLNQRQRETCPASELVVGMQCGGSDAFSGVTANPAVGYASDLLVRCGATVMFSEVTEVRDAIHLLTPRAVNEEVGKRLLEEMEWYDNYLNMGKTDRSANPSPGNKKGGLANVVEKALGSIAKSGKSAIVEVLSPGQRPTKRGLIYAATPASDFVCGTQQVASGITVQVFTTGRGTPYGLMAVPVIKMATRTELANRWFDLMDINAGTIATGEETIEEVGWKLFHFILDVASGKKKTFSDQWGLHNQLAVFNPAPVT
UniProt P43533: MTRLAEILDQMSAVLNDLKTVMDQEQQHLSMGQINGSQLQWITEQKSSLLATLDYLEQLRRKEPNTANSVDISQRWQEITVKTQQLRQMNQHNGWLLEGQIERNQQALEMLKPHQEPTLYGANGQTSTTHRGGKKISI
UniProt P36881: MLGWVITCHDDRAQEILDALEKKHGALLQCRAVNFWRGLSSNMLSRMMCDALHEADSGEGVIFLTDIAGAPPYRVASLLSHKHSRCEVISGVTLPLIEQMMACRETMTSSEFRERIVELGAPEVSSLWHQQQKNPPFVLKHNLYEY
UniProt P39332: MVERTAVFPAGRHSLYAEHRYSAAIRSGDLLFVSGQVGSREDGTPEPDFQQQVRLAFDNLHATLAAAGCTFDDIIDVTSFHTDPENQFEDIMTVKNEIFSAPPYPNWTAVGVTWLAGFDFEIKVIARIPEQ
UniProt P37645: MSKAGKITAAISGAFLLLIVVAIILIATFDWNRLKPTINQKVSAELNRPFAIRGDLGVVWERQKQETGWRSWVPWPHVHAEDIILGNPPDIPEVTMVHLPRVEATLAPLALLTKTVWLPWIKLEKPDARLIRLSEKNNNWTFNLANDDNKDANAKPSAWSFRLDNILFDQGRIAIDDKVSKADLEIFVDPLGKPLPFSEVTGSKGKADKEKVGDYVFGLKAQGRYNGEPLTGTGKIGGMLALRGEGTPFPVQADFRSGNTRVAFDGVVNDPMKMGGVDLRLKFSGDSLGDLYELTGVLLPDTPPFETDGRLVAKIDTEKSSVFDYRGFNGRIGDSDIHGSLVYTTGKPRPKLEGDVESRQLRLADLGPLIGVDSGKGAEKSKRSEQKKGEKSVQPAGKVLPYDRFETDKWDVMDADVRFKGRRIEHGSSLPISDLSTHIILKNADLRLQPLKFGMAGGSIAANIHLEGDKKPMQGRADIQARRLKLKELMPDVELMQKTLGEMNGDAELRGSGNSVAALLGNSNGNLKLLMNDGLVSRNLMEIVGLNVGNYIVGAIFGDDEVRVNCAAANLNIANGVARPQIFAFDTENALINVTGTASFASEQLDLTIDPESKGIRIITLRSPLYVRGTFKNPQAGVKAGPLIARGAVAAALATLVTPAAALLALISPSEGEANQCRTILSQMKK
UniProt P45800: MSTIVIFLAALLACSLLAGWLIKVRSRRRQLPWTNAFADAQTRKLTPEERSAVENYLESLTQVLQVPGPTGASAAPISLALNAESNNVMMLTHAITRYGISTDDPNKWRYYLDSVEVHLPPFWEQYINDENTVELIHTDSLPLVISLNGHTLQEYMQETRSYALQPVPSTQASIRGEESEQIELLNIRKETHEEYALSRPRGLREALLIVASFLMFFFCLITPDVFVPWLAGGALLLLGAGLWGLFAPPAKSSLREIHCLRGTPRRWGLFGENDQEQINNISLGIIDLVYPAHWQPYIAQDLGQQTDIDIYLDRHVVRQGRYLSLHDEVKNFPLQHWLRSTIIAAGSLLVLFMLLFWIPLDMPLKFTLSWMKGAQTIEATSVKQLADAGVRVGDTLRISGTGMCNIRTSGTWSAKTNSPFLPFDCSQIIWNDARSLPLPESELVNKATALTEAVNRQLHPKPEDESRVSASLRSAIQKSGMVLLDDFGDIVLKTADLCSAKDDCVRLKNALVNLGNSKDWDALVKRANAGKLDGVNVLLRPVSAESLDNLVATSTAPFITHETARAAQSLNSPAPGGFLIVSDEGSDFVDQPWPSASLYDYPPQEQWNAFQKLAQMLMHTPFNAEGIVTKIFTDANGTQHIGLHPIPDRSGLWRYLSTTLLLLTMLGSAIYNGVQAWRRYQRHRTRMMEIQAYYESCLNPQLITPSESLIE

Compound in the test: CC1(C)S[C@@H]2[C@H](NC(=O)[C@H](N)c3ccccc3)C(=O)N2[C@H]1C(=O)O [ampicillin]
In words: log2 fold change of tryptic peptide abundance, ligand vs vehicle (limited proteolysis) (log2 ratio); higher = more trypsin-susceptible (destabilized). As to conditions: ligand concentration: 10 uM; sample: E. coli crude lysate.
In the case of “UniProt P34749 (peptide sequence: SLRELGVK, peptide start residue: 194)”, the log2 fold change stood at 0.082.

For the target “UniProt P36995 (peptide sequence: VTFSIESGAK, peptide start residue: 51)”, the log2 fold change worked out at 0.157.

For the target “UniProt P39187 (peptide sequence: VLQHIAGR, peptide start residue: 63)”, the log2 fold change was -0.157.

As for “UniProt P36771 (peptide sequence: LEQLVGKELFAR, peptide start residue: 49)”, the log2 fold change was -0.26.

With “UniProt P37747 (peptide sequence: EYPLEWK, peptide start residue: 298)”, the log2 fold change was -0.183.

Regarding “UniProt P37648 (peptide sequence: DIGLGFDCR, peptide start residue: 320)”, the log2 fold change was -0.233.

On to “UniProt P36548 (peptide sequence: TSNGHSKPK, peptide start residue: 41)”, for which the log2 fold change was -0.459.

“UniProt P37197 (peptide sequence: LEKDPQLK, peptide start residue: 283)”: the log2 fold change was found to be 0.269.

Regarding “UniProt P36673 (peptide sequence: NISYLGVPHSDVTTGK, peptide start residue: 177)”, the log2 fold change is -0.466.

“UniProt P37008 (peptide sequence: DITPCFGAR, peptide start residue: 14)”: the log2 fold change came out at 0.09.

For “UniProt P43329 (peptide sequence: IDPEWVEPVAQHLIK, peptide start residue: 687)”, the log2 fold change amounted to 0.349.

As to “UniProt P37636 (peptide sequence: QNVLLVPQEGVTHNAQGK, peptide start residue: 299)”, the log2 fold change was determined as 0.195.

For the target “UniProt P43671 (peptide sequence: KAGQLSPGDPVLFR, peptide start residue: 166)”, the log2 fold change was 0.517.

For the target “UniProt P36929 (peptide sequence: ILLDAPCSATGVIRR, peptide start residue: 319)”, the log2 fold change was 0.447.

Turning to “UniProt P37194 (peptide sequence: GNNQPDIQK, peptide start residue: 28)”, the log2 fold change turned out to be 0.18.

For “UniProt P37902 (peptide sequence: ALFKEPNDKALN, peptide start residue: 291)”, the log2 fold change was -0.252.

As for “UniProt P37769 (peptide sequence: LMANEWAK, peptide start residue: 171)”, the log2 fold change is -0.0993.

On to “UniProt P36677 (peptide sequence: HDDPQYQEVSRR, peptide start residue: 78)”, for which the log2 fold change was -0.452.

On to “UniProt P37634 (peptide sequence: EKDKPFLYLDTHAGAGR, peptide start residue: 31)”, for which the log2 fold change turned out to be 0.415.

Take “UniProt P35340 (peptide sequence: HTAIDGGTFQNEITDR, peptide start residue: 151)”: the log2 fold change turned out to be 0.298.

Turning to “UniProt P37765 (peptide sequence: ESAEQICRVLAYYKPEGELCTR, peptide start residue: 61)”, the log2 fold change is 0.187.

“UniProt P39160 (peptide sequence: IVHLGCGAFHR, peptide start residue: 25)”: the log2 fold change was -0.624.

Turning to “UniProt P37348 (peptide sequence: FIGSDDMTQNR, peptide start residue: 200)”, the log2 fold change amounted to 0.207.

For the target “UniProt P37652 (peptide sequence: LGATNQLR, peptide start residue: 476)”, the log2 fold change turned out to be 0.0342.

Consider “UniProt P33927 (peptide sequence: GGVATIGVTR, peptide start residue: 543)”, for which the log2 fold change is -0.22.

For “UniProt P39829 (peptide sequence: SAIVEVLSPGQR, peptide start residue: 393)”, the log2 fold change was -0.811.

Consider “UniProt P39342 (peptide sequence: GKEVAVDDGILGGLKDILFGTTGPR, peptide start residue: 439)”, for which the log2 fold change was -1.09.

For “UniProt P43533 (peptide sequence: RKEPNTANSVDISQR, peptide start residue: 61)”, the log2 fold change is 0.0901.

As to “UniProt P42620 (peptide sequence: LEQILGQHR, peptide start residue: 220)”, the log2 fold change is 0.439.

As for “UniProt P37692 (peptide sequence: YGLLNDVR, peptide start residue: 114)”, the log2 fold change was -0.583.

As to “UniProt P36881 (peptide sequence: AQEILDALEKK, peptide start residue: 13)”, the log2 fold change was -0.629.

With “UniProt P39332 (peptide sequence: HSLYAEHR, peptide start residue: 13)”, the log2 fold change came out at 0.0288.

For the target “UniProt P45579 (peptide sequence: LGINNAQAIR, peptide start residue: 197)”, the log2 fold change was -0.0988.

As to “UniProt P39366 (peptide sequence: MLEQTALEHNIPVQR, peptide start residue: 282)”, the log2 fold change is -0.367.

Regarding “UniProt P37645 (peptide sequence: LDNILFDQGR, peptide start residue: 163)”, the log2 fold change turned out to be 0.31.

On to “UniProt P45800 (peptide sequence: ATALTEAVNR, peptide start residue: 447)”, for which the log2 fold change was determined as 0.127.

Source of the values: the supplement of paper PMC12819154, “High-throughput peptide-centric local stability assay extends protein–ligand identification to membrane proteins, tissues and bacteria” (Nature Structural & Molecular Biology, 2025).
